Results are given in words; binding and its absence hold for the method and conditions named. In cells and extracts the contact can be indirect. Here binding means that the protein was enriched with, or labelled near, the bait; the list need not be complete.
Target: T1, endogenous ZBED4 of Y79 retinoblastoma cells (human (endogenous in Y79)) (UniProt O75132)
T1 sequence: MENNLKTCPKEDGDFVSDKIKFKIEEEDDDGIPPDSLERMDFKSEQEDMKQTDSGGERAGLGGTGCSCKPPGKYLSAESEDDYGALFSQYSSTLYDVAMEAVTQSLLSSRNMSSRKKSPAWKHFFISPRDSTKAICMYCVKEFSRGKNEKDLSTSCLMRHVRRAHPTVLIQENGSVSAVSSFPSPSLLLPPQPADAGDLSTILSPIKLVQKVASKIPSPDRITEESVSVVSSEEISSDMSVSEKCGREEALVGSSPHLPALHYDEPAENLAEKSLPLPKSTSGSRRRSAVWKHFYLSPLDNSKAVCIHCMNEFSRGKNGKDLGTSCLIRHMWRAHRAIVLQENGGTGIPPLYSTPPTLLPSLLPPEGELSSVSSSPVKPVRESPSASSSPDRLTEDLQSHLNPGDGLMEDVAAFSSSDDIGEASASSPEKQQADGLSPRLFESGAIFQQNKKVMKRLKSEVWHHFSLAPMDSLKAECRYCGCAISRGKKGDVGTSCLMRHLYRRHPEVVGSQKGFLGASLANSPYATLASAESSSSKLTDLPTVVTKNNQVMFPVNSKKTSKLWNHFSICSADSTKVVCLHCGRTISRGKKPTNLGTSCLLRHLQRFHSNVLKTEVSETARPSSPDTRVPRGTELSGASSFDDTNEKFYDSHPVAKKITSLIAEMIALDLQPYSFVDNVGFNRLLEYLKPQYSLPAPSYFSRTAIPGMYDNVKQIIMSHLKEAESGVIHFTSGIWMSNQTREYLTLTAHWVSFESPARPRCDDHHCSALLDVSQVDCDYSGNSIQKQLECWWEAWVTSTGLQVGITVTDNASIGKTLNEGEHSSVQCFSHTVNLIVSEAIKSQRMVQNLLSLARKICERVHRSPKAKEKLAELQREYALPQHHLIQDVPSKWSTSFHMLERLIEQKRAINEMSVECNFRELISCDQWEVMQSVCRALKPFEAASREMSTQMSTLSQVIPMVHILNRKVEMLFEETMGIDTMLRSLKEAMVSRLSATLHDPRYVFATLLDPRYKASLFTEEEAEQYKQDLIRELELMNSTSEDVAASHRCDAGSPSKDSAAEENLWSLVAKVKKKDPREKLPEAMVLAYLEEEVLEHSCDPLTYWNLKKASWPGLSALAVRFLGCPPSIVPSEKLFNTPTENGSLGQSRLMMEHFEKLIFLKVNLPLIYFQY
Test: affinity purification with mass spectrometry; Y79 cells lysed in RIPA buffer; immunoprecipitation with Zbed4 antibody (Immobilized Protein G kit), pre-immune serum as control; bands excised from SDS-PAGE (SYPRO Ruby), trypsin digestion, nLC-MS/MS

By UniProt entry, the sequences of proteins in these tests, tags left out.
UniProt P35579: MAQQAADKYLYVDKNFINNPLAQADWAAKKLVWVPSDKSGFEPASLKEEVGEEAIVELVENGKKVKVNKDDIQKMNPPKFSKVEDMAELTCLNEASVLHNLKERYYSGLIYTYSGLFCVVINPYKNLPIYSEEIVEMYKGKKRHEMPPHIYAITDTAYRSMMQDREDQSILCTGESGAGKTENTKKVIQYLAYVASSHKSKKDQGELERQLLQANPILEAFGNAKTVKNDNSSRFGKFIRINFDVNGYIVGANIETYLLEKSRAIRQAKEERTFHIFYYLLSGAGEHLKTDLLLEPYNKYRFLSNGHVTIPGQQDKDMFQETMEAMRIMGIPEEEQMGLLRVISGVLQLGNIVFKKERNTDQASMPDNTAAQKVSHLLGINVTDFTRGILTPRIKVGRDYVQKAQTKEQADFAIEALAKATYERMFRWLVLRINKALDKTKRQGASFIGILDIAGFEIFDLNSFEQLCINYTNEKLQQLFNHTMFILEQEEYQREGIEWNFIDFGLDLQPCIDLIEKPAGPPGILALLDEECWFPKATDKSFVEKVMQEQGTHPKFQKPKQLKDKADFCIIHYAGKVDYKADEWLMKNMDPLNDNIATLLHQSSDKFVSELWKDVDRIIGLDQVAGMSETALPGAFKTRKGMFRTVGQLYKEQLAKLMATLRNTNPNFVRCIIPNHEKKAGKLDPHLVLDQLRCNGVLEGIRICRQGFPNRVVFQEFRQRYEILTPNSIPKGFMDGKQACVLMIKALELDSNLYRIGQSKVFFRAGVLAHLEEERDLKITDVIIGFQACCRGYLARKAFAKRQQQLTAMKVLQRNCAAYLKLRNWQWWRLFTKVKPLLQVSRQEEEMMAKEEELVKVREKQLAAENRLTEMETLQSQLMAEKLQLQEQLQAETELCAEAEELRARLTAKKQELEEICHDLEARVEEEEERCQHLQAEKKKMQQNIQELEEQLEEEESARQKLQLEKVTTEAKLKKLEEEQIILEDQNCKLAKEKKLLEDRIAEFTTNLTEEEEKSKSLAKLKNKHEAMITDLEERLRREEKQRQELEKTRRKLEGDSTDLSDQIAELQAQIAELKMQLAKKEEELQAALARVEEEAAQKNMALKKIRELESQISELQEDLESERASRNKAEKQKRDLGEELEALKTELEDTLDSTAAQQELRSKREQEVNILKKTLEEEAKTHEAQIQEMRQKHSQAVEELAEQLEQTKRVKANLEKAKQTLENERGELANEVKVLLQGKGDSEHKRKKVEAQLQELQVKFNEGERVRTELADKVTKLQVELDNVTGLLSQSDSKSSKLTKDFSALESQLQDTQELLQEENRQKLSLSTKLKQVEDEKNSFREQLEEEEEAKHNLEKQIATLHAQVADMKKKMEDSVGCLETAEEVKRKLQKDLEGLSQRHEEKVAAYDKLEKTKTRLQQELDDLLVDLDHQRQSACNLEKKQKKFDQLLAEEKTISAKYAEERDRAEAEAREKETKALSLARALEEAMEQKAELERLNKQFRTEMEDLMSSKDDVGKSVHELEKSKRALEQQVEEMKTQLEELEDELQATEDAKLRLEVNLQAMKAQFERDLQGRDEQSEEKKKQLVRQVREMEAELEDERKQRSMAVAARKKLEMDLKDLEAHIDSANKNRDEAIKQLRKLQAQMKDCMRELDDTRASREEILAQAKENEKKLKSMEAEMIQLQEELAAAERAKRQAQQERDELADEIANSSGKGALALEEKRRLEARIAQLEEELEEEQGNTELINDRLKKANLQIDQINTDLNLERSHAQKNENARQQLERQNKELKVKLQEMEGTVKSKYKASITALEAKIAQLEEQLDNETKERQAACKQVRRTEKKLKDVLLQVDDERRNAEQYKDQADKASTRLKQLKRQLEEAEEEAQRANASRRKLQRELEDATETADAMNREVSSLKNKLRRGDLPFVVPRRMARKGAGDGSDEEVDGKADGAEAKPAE

- binding: binds
Substance: cellular myosin 9 (from UniProt P35579 1-1960)

Reference: article PMC3365051, “Sequence-Specific Binding of Recombinant Zbed4 to DNA: Insights into Zbed4 Participation in Gene Transcription and Its Association with Other Proteins”
